# Laboratory results taken from the supplement of paper PMC12823440, “Inhibitors supercharge kinase turnover through native proteolytic circuits” (Nature, 2025).
# Chains of the proteins cited; added tags and fusions are not shown. Lines headed by an entry give the natural chain unless they say otherwise; changes in a name come on top.
# UniProt Q96KB5: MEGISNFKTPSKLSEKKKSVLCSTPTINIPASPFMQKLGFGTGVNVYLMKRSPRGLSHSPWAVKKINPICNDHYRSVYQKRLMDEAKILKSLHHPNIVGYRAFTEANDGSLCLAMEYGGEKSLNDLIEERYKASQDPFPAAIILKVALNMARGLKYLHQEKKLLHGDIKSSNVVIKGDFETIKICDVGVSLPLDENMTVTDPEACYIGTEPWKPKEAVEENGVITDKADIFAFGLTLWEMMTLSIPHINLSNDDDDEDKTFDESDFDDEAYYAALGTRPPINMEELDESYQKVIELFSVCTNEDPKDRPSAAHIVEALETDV
# Structures can show the parent of a compound that is named as a salt. Some of the results follow. The calls rarely recur for the same compound in another form.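 Kinases were expressed as nanoluciferase fusions in K562 cells and luminescence was read every 4 h between 2 and 18 h as percent of control, DMSO set to 100% and a positive control to 0%. A time point counts as decreased when the signal drops significantly (2 sigma). The hit call is the authors' own, does not follow from the count of time points alone, and its rule is not shown.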
# Molecular target: PBK (UniProt Q96KB5)
# Experiment: number of time points (of 5) at which kinase-Nluc abundance scored as decreased, DMSO-normalised (count); higher = more persistent destabilization
# Settings: K562; 2-18 h
row,SMILES,number of time points
1,CN1C(=O)[C@@H](NC(=O)c2n[nH]c(Cc3ccccc3)n2)COc2ccccc21 (10 µM),0
2,O=C1NC(=Nc2c(Cl)cccc2Cl)S/C1=C\c1ccc2nccnc2c1 (2.5 µM),0
3,Cc1cccc(-c2[nH]c(C(C)(C)C)nc2-c2ccc3nccnc3c2)n1 (10 µM),0
4,O=C(Nc1cccc(C(F)(F)F)c1)c1cccc2cc(Oc3cc(CO)ncn3)ccc12 (10 µM),0
5,CNc1cc(Nc2cccn(-c3ccccn3)c2=O)nn2c(C(=O)N[C@@H]3C[C@@H]3F)cnc12 (2.5 µM),0
6,Cc1ccn2c(C(=O)C(=O)c3ccccc3)c(-c3ccccc3)nc2c1 (10 µM),0
7,COc1cc(N2CCOCC2)ccc1Nc1ncc(Cl)c(Nc2ccccc2NS(C)(=O)=O)n1 (2.5 µM),0
8,O=C(NC1CCOCC1)c1ccc(-c2cc(-c3c[nH]nc3-c3ccccn3)ccn2)cc1 (10 µM),0
9,O=C1NC(=O)/C(=C/c2ccc3nccc(-c4ccncc4)c3c2)S1 (10 µM),0
10,Cc1ncc(NC(=O)NC2c3ccccc3-c3ccccc32)c(-c2ccccc2)n1 (10 µM),0
11,CC(C)C[C@@H](C(=O)Nc1ccn(C[C@@H](O)CO)n1)N1CC(Oc2ccccc2Cl)=CC1=O [Dorzagliatin] (10 µM),0
12,O=C1O[C@H]([C@@H](O)CO)C(O)=C1OP(=O)(O)O [2-Phospho-L-ascorbic acid (trisodium)] (10 µM),0
13,C[C@@H]1CC(=O)c2c(ccc3c2C(=O)c2cccc(O)c2C3=O)C1 [Ochromycinone] (10 µM),0
14,Cc1c(-c2ccc(C(N)=O)c3[nH]c4cc(C(C)(C)O)ccc4c23)cccc1-n1cnc2ccccc2c1=O (2.5 µM),0
15,CC(C)(C)n1nc(Cc2ccccc2O)c2c(N)ncnc21 (10 µM),0
16,C=CC(=O)N1C(=O)CC(c2ccc(F)cc2)Sc2ccccc21 (stereo not drawn) [GSK-3β inhibitor 3] (10 µM),0
17,CCc1ccc(OCC(=O)Nc2ccc(F)c([N+](=O)[O-])c2)cc1 (10 µM),0
18,CN(C)c1nc2c(Br)c(Br)c(Br)c(Br)c2[nH]1 (10 µM),0
19,Nc1ncnc2c1c(-c1ccc(Oc3ccccc3)cc1)nn2C1CCN(CCOCCOCCOc2ccc3c(c2)CN(C2CCC(=O)NC2=O)C3=O)CC1 (centres undefined) (2.5 µM),0
20,Cc1cnc(NC2CCOCC2)nc1-n1cnc(C(=O)N[C@H](CN)c2cc(F)cc(Cl)c2)c1 (10 µM),0

row,SMILES,number of time points
1,FC(F)(F)c1ccc(/C=C/c2nc(COc3ccc(CCCCn4ccnn4)cc3)co2)cc1 [Mubritinib] (10 µM),0
2,Cc1cc2sc(NC(=O)Cc3ccccc3)nc2cc1Cl (10 µM),0
3,O=C(CNc1cccc(Cl)c1)NC1CCCN(c2ncnc3[nH]ccc23)C1 (centres undefined) (10 µM),0
4,Oc1ccc(/C=C/c2cc(O)cc(F)c2)cc1 [Resveratrol analog 1] (10 µM),0
5,CC/C(=N\NC(=O)c1ccnc(NCCCN2CCOCC2)c1)c1ccc(Cl)cc1O (2.5 µM),0
6,O[C@@H]1CO[C@H]2[C@@H]1OC[C@H]2Oc1nc2nc(-c3ccc(-c4ccccc4)cc3)c(Cl)cc2[nH]1 (10 µM),0
7,Nc1c(C(=O)NCc2ccc(C(=O)NCCCC3CCCCC3)cc2)cnn1-c1ccccc1 (2.5 µM),0
8,Cc1ccc(C(=O)Nc2sc(Nc3ccccc3)nc2C(N)=O)cc1 (10 µM),0
9,COc1cc(N(C)CCN(C)C)c(N)cc1Nc1nccc(-c2cn(C)c3ccccc23)n1 [Mutated EGFR-IN-1] (10 µM),0
10,CCN(CC)c1cc2oc(=O)c(-c3nc4ccccc4o3)cc2cc1C (2.5 µM),0
11,Cn1cc(-c2cnc3cnn(S(=O)(=O)c4cnc5ccc(-c6cnn(C)c6)cn45)c3c2)cn1 [Glumetinib] (10 µM),0
12,Cc1ccc(NC(=O)c2ccnc(C(F)(F)F)c2)cc1-c1cc(OCCO)nc(N2CCOCC2)c1 (10 µM),0
13,C=CC(=O)Nc1cccc(-c2cccc3cnc(Nc4ccc(N5CCN(CCO)CC5)c(F)c4F)nc23)c1 [Olafertinib] (2.5 µM),0
14,CC(C)(C[C@H](N)C(=O)O)C(F)F [NV-5138 (hydrochloride)] (10 µM),0
15,Cc1cc(C)nc(NS(=O)(=O)c2ccc(NC(=S)NC(=O)COc3ccc(Br)cc3Cl)cc2)n1 (2.5 µM),0
16,CC[C@@](C)(Nc1ccnc(-c2c[nH]c3ncccc23)n1)C(=O)NCC(F)(F)F [Decernotinib] (10 µM),0
17,COc1cc2ncnc(-n3nc(-c4ccccn4)nc3N)c2cc1OC (10 µM),0
18,O=C1/C(=C\c2ccc(Cl)cc2)C=C(c2ccccc2)N1c1ccc(O)cc1 (2.5 µM),0
19,Oc1ccc(/C=C/c2cc(O)cc(O)c2)cc1 [Resveratrol] (10 µM),0

# Molecules listed so far that contain an aryl methoxy group:
row,SMILES,number of time points
7,COc1cc(N2CCOCC2)ccc1Nc1ncc(Cl)c(Nc2ccccc2NS(C)(=O)=O)n1 (2.5 µM),0
9,COc1cc(N(C)CCN(C)C)c(N)cc1Nc1nccc(-c2cn(C)c3ccccc23)n1 [Mutated EGFR-IN-1] (10 µM),0
17,COc1cc2ncnc(-n3nc(-c4ccccn4)nc3N)c2cc1OC (10 µM),0
